Measured values published in PubChem BioAssay AID504444 (National Center for Advancing Translational Sciences (NCATS), 2011).
In all, about 360,000 compounds went through this assay and about 7,500 (2.1%) were called active. The shares of active, inactive and inconclusive entries below differ from those in the screen. Calls follow the shape of the dose curve; as a rule, active = well fitted inhibition curve with a large enough effect; inconclusive = small, poorly fitted or top-dose-only effect, or effect the other way; inactive = flat fitted curve, though single readings scatter. Potencies beside an inconclusive call are fits to weak or partial responses and may not hold up.

Assay: Nrf2 qHTS screen for inhibitors; also: nearly all actives have a fitted effect of over 60% in size
Conditions: A549 ARE-Fluc reporter, luciferase luminescence, 18-24 h; activity change, negative = inhibition: at 46 µM (top of the series)
Outline: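 Nrf2 function is reported as luminescence of an ARE-controlled luciferase in A549 cells. Compounds were tested at several concentrations, and a CellTiter-Fluor read on the same wells flagged cytotoxicity.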
% is scaled to controls: 0 for no effect and ±100 for the full control effect; potency is read from the fitted curve at half-maximal effect.

Question: Which Potency does the source give for O=C(C=Cc1ccccc1)N1CCCCC1 here?
Answer: Its Potency is inconclusive: 7.31 µM [activator, partial curve, poor fit].

Question: Which Potency does the source give for O=C(Nc1ccccc1)c1nc[nH]c1C(=O)NCCCCNC(=O)c1[nH]cnc1C(=O)Nc1ccccc1 here?
Answer: The Potency was inconclusive: 29.1 µM [falling, single point].

Question: With O=C1CC(c2ccc(O)cc2)Oc2cc(O)cc(O)c21 (stereo not drawn) as the molecule, how does the “activity change, negative = inhibition” value read?
Answer: The value was inactive: -24.2%.

Question: For CC1CCCC/C1=N\NC(=S)Nc1ccccc1 (stereo not drawn), which Potency is on record?
Answer: Its Potency is inconclusive: 29.1 µM [activator, single point].

Question: With NS(=O)(=O)c1ccc(NCc2ccccc2OCc2ccccc2F)cc1 as the molecule, how does the Potency read?
Answer: Its Potency is inconclusive: 29.1 µM [falling, single point].

Question: For CC(C)=CCC/C(C)=C/CNC(=O)C[C@H]1C[C@H](C(=O)N2CCOCC2)[C@@]2(CCC3CCCC3)c3[nH]c4cc(CCC(=O)N(C)C)ccc4c3CCN2C1=O, which Potency is on record?
Answer: The Potency was inconclusive: 29.1 µM [falling, single point].

Question: Which Potency does the source give for O=C(CCCn1c(=S)[nH]c2cc3c(cc2c1=O)OCO3)N1CCN(c2ccccn2)CC1 here?
Answer: Its Potency is inconclusive: 29.1 µM [falling, single point].

Question: Which Potency does the source give for Cc1cccc(NC(=S)NC(=O)c2ccc(-c3ccccc3)cc2)n1 here?
Answer: The Potency was inconclusive: 3.66 µM [activator, partial curve].

Question: For COc1ccc(C2CC(c3cccs3)=NN2C(=O)CSc2nc3c(cnn3-c3ccccc3)c(=O)[nH]2)cc1 (stereo not drawn), which Potency is on record?
Answer: The Potency was active: 16.4 µM.

Question: With O=C(C1=C[C@H](c2csc3ccccc23)C[C@H](OCc2ccc(CO)cc2)O1)N1CCCCCCC1 as the molecule, how does the Potency read?
Answer: Its Potency is active: 23.1 µM.

Question: With FC(F)(F)c1ccc2c(c1)N1CCCC1CN2 (stereo not drawn) as the molecule, how does the “activity change, negative = inhibition” value read?
Answer: Its value is inactive: 1.04%.

Question: With CC(=O)c1ccc(N2CCN(C(=O)c3cc(S(=O)(=O)N4CCOCC4)ccc3C)CC2)cc1 as the molecule, how does the Potency read?
Answer: The Potency was inconclusive: 29.1 µM [activator, partial curve, poor fit].

Question: For CCCc1cc2c(cc1NC(=O)c1ccc(C(C)(C)C)cc1)OCO2, which Potency is on record?
Answer: The Potency was inconclusive: 3.66 µM [activator, full curve, poor fit].

Question: For Cc1ccccc1/C=N/N1CCN(c2ccccc2)CC1, which Potency is on record?
Answer: Its Potency is inconclusive: 9.2 µM [activator, partial curve, poor fit].

Question: Which Potency does the source give for CC(C)c1ccc(Nc2ccc(C(=O)O)cc2[N+](=O)[O-])cc1 here?
Answer: The Potency was inconclusive: 16.4 µM [activator, single point].

Question: Which Potency does the source give for Cc1cc(C(=O)N/N=C/c2ccccc2)c(C)o1 here?
Answer: The Potency was inconclusive: 5.8 µM [activator, partial curve, poor fit].

Question: Which “activity change, negative = inhibition” value does the source give for FC(F)(F)c1nc(-c2cccnc2)ncc1-c1nnnn1-c1ccccc1 here?
Answer: The value was inactive: -38.8%.

Question: With O=[N+]([O-])c1ccc(Cl)c(CN2CCN(c3ncccn3)CC2)c1 as the molecule, how does the Potency read?
Answer: The Potency was inconclusive: 9.2 µM [falling, partial curve, poor fit].

Question: With CN(CCc1ccccc1)C(=O)c1ccc(NC(=O)Cc2ccc(NC(=O)C3CCCN(S(=O)(=O)c4cccc([N+](=O)[O-])c4)C3)cc2)cc1 (stereo not drawn) as the molecule, how does the Potency read?
Answer: The Potency was inconclusive: 9.2 µM [falling, partial curve, poor fit].

Question: Which Potency does the source give for CCc1cc(=O)oc2c3c(cc(OCC(=O)Nc4cccnc4)c12)OC(C)(C)CC3 here?
Answer: The Potency was inconclusive: 5.17 µM [falling, partial curve].

Question: Which Potency does the source give for O=C(c1cc(-c2ccccc2)on1)N1CCCC1 here?
Answer: Its Potency is inconclusive: 1.03 µM [activator, full curve].

Question: With O=C(Nc1cc(-c2ccccc2)nn1-c1ccccc1F)c1ccc([N+](=O)[O-])cc1 as the molecule, how does the Potency read?
Answer: The Potency was active: 20.6 µM.

Question: Which Potency does the source give for Cc1ccccc1Cn1c2ccccc2c2cnn(CC(=O)N3CCC(C)CC3)c(=O)c21 here?
Answer: The Potency was inconclusive: 16.4 µM [falling, single point].

Question: For COc1ccc(OC)c(NC(=O)COc2coc(CN3CCCc4ccccc43)cc2=O)c1, which Potency is on record?
Answer: Its Potency is inconclusive: 18.4 µM [falling, single point].

Question: For C=CCC[C@H](Cc1ccc(F)cc1)C(=O)OC[C@@H](Cc1c[nH]c2ccccc12)NC(=O)[C@H](CC=C)CC(=O)N(CCO)Cc1ccccc1, which Potency is on record?
Answer: The Potency was active: 20.6 µM.

Question: With Cc1ccc(S(=O)(=O)NCC(Nc2cccc(Cl)c2)c2ccccc2)cc1 (stereo not drawn) as the molecule, how does the Potency read?
Answer: Its Potency is inconclusive: 29.1 µM [falling, single point].

Question: With CCN(c1ccccc1)S(=O)(=O)c1ccc(Oc2ccccc2)c(N)c1 as the molecule, how does the Potency read?
Answer: Its Potency is inconclusive: 29.1 µM [falling, single point].

Question: For c1ccc(-c2onc3cc4c(cc23)OCCO4)cc1, which Potency is on record?
Answer: Its Potency is inconclusive: 1.84 µM [activator, full curve].

Question: For CCc1ccccc1-n1ncc(C(=O)Nc2ccc(OC)cc2)c1C, which Potency is on record?
Answer: Its Potency is inconclusive: 29.1 µM [activator, single point].

Question: Which Potency does the source give for Cc1ccnc(N2C(=O)c3ccccc3C2O)c1 (stereo not drawn) here?
Answer: Its Potency is inconclusive: 1.84 µM [activator, full curve, poor fit].

Question: With CC(=O)N1c2ccc(S(=O)(=O)N(C)CC(=O)N(Cc3ccccc3)C(C)C)cc2CC1C (stereo not drawn) as the molecule, how does the Potency read?
Answer: Its Potency is inconclusive: 32.6 µM [falling, single point].

Question: For COc1ccccc1CN(Cc1nc2ccccc2c(=O)[nH]1)C(=O)Nc1ccc(C)cc1, which “activity change, negative = inhibition” value is on record?
Answer: The value was inactive: 20%.

Question: With O=C1/C(=C/c2ccco2)SC(=S)N1CCC(=O)N1CCCCC1CCO (stereo not drawn) as the molecule, how does the “activity change, negative = inhibition” value read?
Answer: The value was inactive: -7.4%.

Question: Which Potency does the source give for CC1(c2nnc(-c3ccccc3)o2)CC(c2c(Cl)cccc2Cl)=NO1 (stereo not drawn) here?
Answer: The Potency was active: 23.1 µM.

Question: With CCN(Cc1ccccc1)Cc1c(O)ccc2oc(C)c(C(=O)Nc3ccccc3C)c12 as the molecule, how does the “activity change, negative = inhibition” value read?
Answer: The value was inactive: 14.9%.

Question: For O=C(Nc1ccc(Cl)cc1)c1ccc2snnc2c1, which Potency is on record?
Answer: The Potency was inconclusive: 6.51 µM [activator, single point].

Question: With O=C(N/N=C/c1cccnc1)c1cc(Br)ccc1O as the molecule, how does the Potency read?
Answer: The Potency was inconclusive: 11.6 µM [activator, partial curve].

Question: Which Potency does the source give for CCOC(=O)N1CCN(S(=O)(=O)c2ccc(F)cc2)CC1 here?
Answer: Its Potency is inconclusive: 0.731 µM [falling, full curve, poor fit].

Question: For Oc1cccc(/C=C/c2ccc3cccc(O)c3n2)c1, which “activity change, negative = inhibition” value is on record?
Answer: The value was inactive: -3.81%.

Question: With Cc1cc(C(C)(C)C)cc(C)c1CCNC(=O)c1c(C)noc1C as the molecule, how does the Potency read?
Answer: The Potency was inconclusive: 16.4 µM [falling, single point].

Question: Which Potency does the source give for CC1=CC(C)(C)Nc2ccc(OC(=O)CN3C(=O)CCC3=O)cc21 here?
Answer: Its Potency is inconclusive: 18.4 µM [falling, single point].

Question: With O=C(Nc1cccc(Cl)c1)Nc1nccs1 as the molecule, how does the Potency read?
Answer: Its Potency is inconclusive: 20.6 µM [activator, partial curve, poor fit].

Question: Which Potency does the source give for Cc1cc(C)cc(NC(=S)NCCSc2ccc(Cl)cc2)c1 here?
Answer: Its Potency is inconclusive: 1.3 µM [falling, partial curve, poor fit].

Question: Which Potency does the source give for CC(C)c1nc(CNC(=O)c2ccc(OC3CCN(Cc4ccccn4)CC3)cc2)cs1 here?
Answer: The Potency was inconclusive: 7.31 µM [falling, partial curve, poor fit].

Question: Which Potency does the source give for CCCC(=O)N1CCN(C2=NS(=O)(=O)c3ccccc32)CC1 here?
Answer: The Potency was inconclusive: 0.0731 µM [falling, full curve, poor fit].

Question: For Cc1nn2c(=O)cc(COc3ccc(/C=C(\C#N)C(=O)Nc4ccccc4)cc3Cl)nc2s1, which “activity change, negative = inhibition” value is on record?
Answer: The value was inactive: 7.11%.

Question: Which Potency does the source give for Cc1cc(C)cc(NC(=O)N2CCC(c3nc4ccccc4o3)CC2)c1 here?
Answer: Its Potency is inconclusive: 18.4 µM [falling, single point].

Question: For Cc1ccc(-c2nc(CS(=O)(=O)CC(=O)N3CCCCCC3)c(C)o2)cc1, which Potency is on record?
Answer: Its Potency is inconclusive: 0.461 µM [falling, full curve, poor fit].

Question: For COc1ccc(C2=NN(C(=O)CCCC(=O)O)C(c3cn(-c4ccccc4)nc3-c3ccccc3)C2)cc1 (stereo not drawn), which Potency is on record?
Answer: Its Potency is inconclusive: 0.82 µM [falling, full curve, poor fit].

Question: For COc1ccc(C(=O)N2CCN(C)C(=O)[C@@H]2C)cc1OC1CCN(C(C)=O)CC1, which “activity change, negative = inhibition” value is on record?
Answer: Its value is inactive: 0.665%.

Question: With O=C(OCc1ccccc1Cl)c1ccc(-c2nnn(Cc3ccc(F)cc3)n2)cc1 as the molecule, how does the Potency read?
Answer: The Potency was inconclusive: 25.9 µM [activator, single point].

Question: For COc1ccc(C(=O)NC(C)c2cc(OC)c(OC)cc2Br)cc1 (stereo not drawn), which Potency is on record?
Answer: Its Potency is inconclusive: 32.6 µM [falling, single point].

Question: Which Potency does the source give for O=c1oc2ccccc2cc1-c1nc2c(s1)CCCC2 here?
Answer: Its Potency is inconclusive: 0.116 µM [activator, full curve, poor fit].

Question: Which Potency does the source give for CCS(=O)(=O)N1Cc2ccccc2CC1C(=O)Nc1nc(C)cs1 (stereo not drawn) here?
Answer: Its Potency is inconclusive: 18.4 µM [activator, partial curve, poor fit].

Question: For COC(=O)c1ccc(-c2noc(CN(Cc3nccn3C)C(C)C)n2)cc1, which Potency is on record?
Answer: The Potency was inconclusive: 6.51 µM [falling, partial curve, poor fit].

Question: Which Potency does the source give for CCN1CCCC1CNc1ncnc2c1[nH]c1ccc(Cl)cc12 (stereo not drawn) here?
Answer: The Potency was inconclusive: 20.6 µM [activator, single point].

Question: With Cc1ccc(CNC(=O)Cc2noc3ccccc23)cc1 as the molecule, how does the Potency read?
Answer: Its Potency is inconclusive: 8.2 µM [activator, partial curve].

Question: With CCCCC(C(=O)NC1CCCC1)N(C(=O)c1snc(C(N)=O)c1N)c1ccc(C)cc1 (stereo not drawn) as the molecule, how does the Potency read?
Answer: Its Potency is inconclusive: 23.1 µM [activator, partial curve, poor fit].

Question: For Cc1ccc(CN2c3ccccc3-c3nc(SCC(=O)Nc4c(C)cc(C)cc4C)ncc3S2(=O)=O)cc1, which Potency is on record?
Answer: Its Potency is inconclusive: 29.1 µM [activator, single point].

Question: With Cc1nn(C)cc1NC(=O)CCSc1nc(-c2ccco2)cc(C(F)(F)F)n1 as the molecule, how does the Potency read?
Answer: The Potency was inconclusive: 14.6 µM [falling, partial curve, poor fit].

Question: Which Potency does the source give for Cc1cccc(NC(=O)CCC(=O)NCCO)c1 here?
Answer: Its Potency is inconclusive: 0.146 µM [falling, full curve, poor fit].

Question: With O=C(CSc1nc2cc(Cl)ccc2s1)NC1CCCc2ccccc21 (stereo not drawn) as the molecule, how does the “activity change, negative = inhibition” value read?
Answer: Its value is inactive: 0.33%.

Question: With Cc1ccc(NCc2ccccc2O)cc1C as the molecule, how does the Potency read?
Answer: Its Potency is inconclusive: 0.0041 µM [activator, full curve, poor fit].
